Source: PMC7562919

How the values were obtained:
[1] = molecular target: TN2-FLAGTEVZZ (Arabidopsis thaliana); assay: co-IP; FLAGTEVZZ-tagged bait co-expressed with a FLAG-tagged partner in N. benthamiana leaves, 48 h; how the bait was precipitated is not told
[2] = molecular target: HA-FLAG-SOC3 (Arabidopsis thaliana) (UniProt F4I901); assay: co-IP; proteins transiently co-expressed in N. benthamiana leaves, harvested after 48 h; GTEN buffer (25 mM Tris-HCl pH 7.5, 150 mM NaCl, 1 mM EDTA, 0.15% NP-40, 10 mM DTT); FLAG-tagged protein precipitated with anti-FLAG M2 beads, 3 h at 4 °C; western blot

B1: DN-SUSA2-FLAG (protein, UniProt Q9FKT0)
chain: MILKKVWGSVWNRSNSGKDLVNHQRAIDVPPLLLSSSSSLQCSQEPWDSIFFAETSLRSGYPLRMISSQSGELSFMHIYSQRAQVPGSIIIDGGSGYCKFGWSKYASPSGRSATFLEFGNIESPIYARLQQFFATIFTRMQVKPSMQPIVVSLPLCHFDDTESAKASRRQLKTAIFNVLFDMNVPAVCAVNQAVLALYAARRTSGIVVNIGFQVITILPILHGKVMRQVGVEVIGFGALKLTGFLKEKMQENNISFQSLYTVRTLKEKLCYVALDYKAELSKDTQASVEVSGEGWFTLSKERFQTGEILFQPRLAGMRAMSLHQAVSLCMDHCDAAGLTGDDSWFKTVVLTGGSACLPGLSERLERELQDHLPSSISNGIRVIPPPYGVDTSWHGAKLISNLSIFPGPWCITRKQFRRKSRLMW
**Q.** With B1 as the binder, how does the binding [1] read?
**A.** binds

B2: DN-SUSA2-Turbo-HA (protein, UniProt Q9FKT0)
chain: B1 chain
**Q.** B2 was tested. Which binding [2] did it give?
**A.** binds

No constants are given. Whether binding was seen depends on the method and setting. Binding seen in cells or lysates may run through a third protein. Binding calls can cover weak binding; strength is not graded here. Tags and fused reporters may be left off the sequences shown.
